The list shows a part of the results.

Chains of the proteins cited; added tags and fusions are not shown.
UniProt Q0JBA9, entry or part of it: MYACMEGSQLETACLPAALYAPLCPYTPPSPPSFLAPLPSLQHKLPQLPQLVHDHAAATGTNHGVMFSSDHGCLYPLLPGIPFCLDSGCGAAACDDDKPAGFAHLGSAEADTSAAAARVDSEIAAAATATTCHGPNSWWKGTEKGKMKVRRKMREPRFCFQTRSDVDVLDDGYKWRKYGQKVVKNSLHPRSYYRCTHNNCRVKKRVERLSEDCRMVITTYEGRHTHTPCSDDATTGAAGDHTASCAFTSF

The target of this experiment is OsWRKY34 (Oryza sativa, UniProt Q0JBA9 1-250). Kind of experiment: protein-binding microarray (RPBM); PBS, 2% BSA, 51.3 ng/ul salmon testes DNA, 50 uM zinc acetate, 200 nM TF, 25 C, 1 h; high values mean tight binding. To be noted: protein: recombinant; tags: N-terminal polyhistidine and DsRed monomer fusion (pET32a); label: CyDye5-dUTP incorporated in the synthesized complementary strand; 3' TTTTT single-stranded linker to array surface; dsDNA, one strand shown. In a few lines:
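Polyhistidine-tagged DsRed fusions of transcription factors, joined at the N-terminus, were expressed in E. coli BL21-CodonPlus and isolated on Ni–NTA. They were incubated at 200 nM for 1 h at 25 °C on a custom Agilent array, double-stranded and BSA-blocked, in PBS with 2% BSA, salmon testes DNA and 50 µM zinc acetate. The binding signal is per-feature fluorescence intensity (arbitrary units) read on an Axon 4000B scanner after washing.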
Consider “GGTCGAGATGCCCAGCTGGTAGGCCTATTTTCTTGACAAACGGAGTCACCTAGTGCAG”, for which the binding signal is 8960 fluorescence intensity (a.u.).
To “CACCCGACGCCTCCTCCTGCCCGCCCGGATCTACCTCGGCCGGAGTCACCTAGTGCAG” belongs 8390 fluorescence intensity (a.u.); to “CTTCCCACTCTCACGTCTCCTCTCTTCCCCTCCGCGAAGCCGGAGTCACCTAGTGCAG”, 9170 fluorescence intensity (a.u.).
To “TTCATGTGTTCTTGGTTGAATGTTTTGTTATGTGTGTTATCGGAGTCACCTAGTGCAG” belongs 11400 fluorescence intensity (a.u.).
On to “CATATATCCACTAATTAATTAATAAACGTTGACCAGTATGCGGAGTCACCTAGTGCAG”, for which the binding signal was 8230 fluorescence intensity (a.u.).
“AATCTCTCCTCCTCCCATCCCGCCGCGCCCGCGAGAGATCCGGAGTCACCTAGTGCAG”: the binding signal is 8190 fluorescence intensity (a.u.).
To “ATGTTATAATGCGTCAATTGATGGCAACTGTTTCCATTGTCGGAGTCACCTAGTGCAG” belongs 9350 fluorescence intensity (a.u.); to “TTCCTGTTTCGCTTAAGTCTGCAATATGTTGTTGATGTTTCGGAGTCACCTAGTGCAG”, 11300 fluorescence intensity (a.u.).
To “TAAAGTCAAACTGTTTTTTTAAGTTTGACCAAGCTTTTGACGGAGTCACCTAGTGCAG” belongs 10400 fluorescence intensity (a.u.); to “TTTCCGTTCCTTTCTTTCCTTCTCGCGTTTGCGTGGTGGGCGGAGTCACCTAGTGCAG”, 10500 fluorescence intensity (a.u.).
For the sequence “TCGACTCACGACGCGCGTGCGCATATGGCCACCGTCTCCGCGGAGTCACCTAGTGCAG”, the binding signal is 9140 fluorescence intensity (a.u.).
Next, “TGGAATTGATTATGATGCTGTTTCCTTCATGGGAGCTCTACGGAGTCACCTAGTGCAG”: 10400 fluorescence intensity (a.u.); “TACCACATTGTTGTCATGGCACGGCTCCTACTCCAATCAACGGAGTCACCTAGTGCAG”: 9120 fluorescence intensity (a.u.).
Next, “GAGTAAGTTTATTTTGCCTCCATTTATTGAATCATCTTCCCGGAGTCACCTAGTGCAG”: 8130 fluorescence intensity (a.u.).
Next, “CCGCCGCCCCACGCCCGATGCCACCCGCCGCCGCCGGCTGCGGAGTCACCTAGTGCAG”: 8100 fluorescence intensity (a.u.).
Consider “CTCTCGCGTGCATCCCTTTTTGTCCTTACACAAGTGTCCGCGGAGTCACCTAGTGCAG”, for which the binding signal was 9240 fluorescence intensity (a.u.).
With “ATCCTGTGTTTTCCCTATTTCTCCGTCTTTTAAATCTTGTCGGAGTCACCTAGTGCAG”, the binding signal was 8420 fluorescence intensity (a.u.).
As for “GCTGCTAGTACACTCAATATCTATGTATTTTTTCTTCTTACGGAGTCACCTAGTGCAG”, the binding signal was 8820 fluorescence intensity (a.u.).
Regarding “TGAGTGATCCGTTATATCTGTTTTTTTTTTTCTGTTAAAGCGGAGTCACCTAGTGCAG”, the binding signal was 8310 fluorescence intensity (a.u.).
Next, “GAGCATGATCTATTTTTGAAAAACCATGTATTCCTGTCTTCGGAGTCACCTAGTGCAG”: 8710 fluorescence intensity (a.u.); “TTCCAACACTGCATGAACAGTGTCATTGGTTTTTCTTCTTCGGAGTCACCTAGTGCAG”: 8500 fluorescence intensity (a.u.).
Next, “ATCATTCTGCAGGTGCTACCCTAACTCAAAATTGCATCTTCGGAGTCACCTAGTGCAG”: 9190 fluorescence intensity (a.u.); “TATTTTGTTGGTTCACTATGACATATCTCACTATCTCTTTCGGAGTCACCTAGTGCAG”: 8250 fluorescence intensity (a.u.).
To “ACATCACCTCGTTTTTTTTCATGTCATCTAAATATTTATACGGAGTCACCTAGTGCAG” belongs 10100 fluorescence intensity (a.u.); to “GCGTGTGTTGTGAGATGTATTATGTTGTGCTTTGTATTTTCGGAGTCACCTAGTGCAG”, 14900 fluorescence intensity (a.u.); to “CTGCTTCTACGTGACCGCACACCAATCTCCTTCGCCCTCTCGGAGTCACCTAGTGCAG”, 8940 fluorescence intensity (a.u.).
Take “AAGATATGCCTACATGGTTGTTTATGCAGCAACCTTTGAACGGAGTCACCTAGTGCAG”: the binding signal was 8180 fluorescence intensity (a.u.).
To “TGTAATTTATCCCGTTGTTACGGTATCCCGTTCTCTATTTCGGAGTCACCTAGTGCAG” belongs 9220 fluorescence intensity (a.u.).
Next, “GCTGACCACGCCTCGCTCTCTCGCGCCGCTCCTCCTCGCTCGGAGTCACCTAGTGCAG”: 8320 fluorescence intensity (a.u.); “TTGCCGATTTACAACAATTATTGTCCAGTTTTCACTGTGTCGGAGTCACCTAGTGCAG”: 8080 fluorescence intensity (a.u.); “CAGAGCAGGGGAGGGGAGGGGAGGGGATCCTGGTGAGCCTCGGAGTCACCTAGTGCAG”: 17600 fluorescence intensity (a.u.).
Next, “CGTCTCGAGCCACCTCGCCGCGGAAAACCTCCGTACTCCGCGGAGTCACCTAGTGCAG”: 8250 fluorescence intensity (a.u.); “ACATATCCATGGTCCAGGGAGCTCACCCGTCCAGCGTTTCCGGAGTCACCTAGTGCAG”: 8080 fluorescence intensity (a.u.).
“AATTTTTCTATGTTTCTCAATGTATCATGTACTAGTAATTCGGAGTCACCTAGTGCAG”: the binding signal was 9060 fluorescence intensity (a.u.).
As for “CTTGGCTTCCTCTCTTCTCCGTGTTCTTCTTGTCCGCTTTCGGAGTCACCTAGTGCAG”, the binding signal is 10900 fluorescence intensity (a.u.).
To “TCCTTGCATTTTCCTCCTCAGCTCTTATGCTAGTTATGTGCGGAGTCACCTAGTGCAG” belongs 8100 fluorescence intensity (a.u.).
Next, “GACGCATTCACTCCGCCTCCGCCTCCGCCTCCGCCTCCGCCGGAGTCACCTAGTGCAG”: 8900 fluorescence intensity (a.u.); “AATCATGAGCTAATGGCTCACCTCGTTTTGCGTATCTTTCCGGAGTCACCTAGTGCAG”: 10300 fluorescence intensity (a.u.).
Take “TAGCTCGCTCGGCTCTTCACCAGCTCGATTCGATTCATCGCGGAGTCACCTAGTGCAG”: the binding signal was 9780 fluorescence intensity (a.u.).
Next, “CAAATTTATATTCGTCGTTTTTTAGTCCATTTATATATCTCGGAGTCACCTAGTGCAG”: 8070 fluorescence intensity (a.u.).
Turning to “AAACATGGCCTGTATTCCCCATCTGGCATCTACCAACTTTCGGAGTCACCTAGTGCAG”, the binding signal is 9780 fluorescence intensity (a.u.).
Next, “TTGTTGCTCGCGACGCGCAACCGCCCGTGGCCCACCTCACCGGAGTCACCTAGTGCAG”: 9040 fluorescence intensity (a.u.).

The values are drawn from publication PMC7819943, “Rice protein-binding microarrays: a tool to detect cis-acting elements near promoter regions in rice”.
